Some of the results follow.
The sequences below were run against T1, OsSMF1 (Oryza sativa, UniProt Q6ZLB0 1-436) (assay: protein-binding microarray (RPBM); PBS, 2% BSA, 51.3 ng/ul salmon testes DNA, 50 uM zinc acetate, 200 nM TF, 25 C, 1 h; high values mean tight binding). Conditions: protein: recombinant; tags: N-terminal polyhistidine and DsRed monomer fusion (pET32a); chain copies: 2; label: CyDye5-dUTP incorporated in the synthesized complementary strand; 3' TTTTT single-stranded linker to array surface; dsDNA, one strand shown.
T1 sequence: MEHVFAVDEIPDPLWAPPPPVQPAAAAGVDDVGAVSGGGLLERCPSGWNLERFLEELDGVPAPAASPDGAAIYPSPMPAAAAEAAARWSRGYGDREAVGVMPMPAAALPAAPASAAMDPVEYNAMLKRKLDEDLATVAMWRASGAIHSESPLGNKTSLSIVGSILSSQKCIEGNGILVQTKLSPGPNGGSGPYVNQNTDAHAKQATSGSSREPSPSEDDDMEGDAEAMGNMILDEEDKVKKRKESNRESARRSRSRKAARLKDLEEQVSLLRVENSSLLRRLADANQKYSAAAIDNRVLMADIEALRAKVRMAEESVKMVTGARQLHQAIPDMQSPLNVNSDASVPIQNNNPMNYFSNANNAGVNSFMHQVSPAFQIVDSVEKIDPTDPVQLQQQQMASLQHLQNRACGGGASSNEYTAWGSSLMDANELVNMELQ
Method in brief: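 Binding signal here means per-feature fluorescence intensity in arbitrary units. The values were read on an Axon 4000B scanner after a custom Agilent array, double-stranded by primer extension with Cy5-dUTP, was incubated with 200 nM protein at 25 °C for 1 h in PBS with 2% BSA, salmon testes DNA and 50 µM zinc acetate, then washed. The proteins were transcription factors with an N-terminal polyhistidine tag and DsRed, expressed in E. coli BL21-CodonPlus and purified on Ni–NTA.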

Row | Sequence | binding signal
1 | AGACAATGCCCTTAAGAGAAATATAGGGGTTGTTTGGTTGCGGAGTCACCTAGTGCAG | 4110 fluorescence intensity (a.u.)
2 | TAAATTTCACAAAACTACATGTTTTATAGTTCAAGTTACACGGAGTCACCTAGTGCAG | 32000 fluorescence intensity (a.u.)
3 | CCGCCCGTTGCTAGCTGACACCTGCAAGAGTGCCAGTGAGCGGAGTCACCTAGTGCAG | 3400 fluorescence intensity (a.u.)
4 | AACAAAGCCAGCCACGTAATGGCGTGAGCCGGAGTAGCCTCGGAGTCACCTAGTGCAG | 5000 fluorescence intensity (a.u.)
5 | AAATAGTTGCCGGCTCACACCCTCTGTCCTCTTCAGCTCACGGAGTCACCTAGTGCAG | 4440 fluorescence intensity (a.u.)
6 | GGGGCCCAACCCAGAAATAAGCGAGGCGGACCTGGGCTATCGGAGTCACCTAGTGCAG | 25100 fluorescence intensity (a.u.)
7 | GCAGAATTCCCCAGCGTGCCCGTCATCTGCATACGCCTCCCGGAGTCACCTAGTGCAG | 3500 fluorescence intensity (a.u.)
8 | TGACATGTGGGCCATCCTTATGTGTGCCCCGCACGTCAGTCGGAGTCACCTAGTGCAG | 4180 fluorescence intensity (a.u.)
9 | TTGACCCACCCCAGTAGCGTGTCGTGTCGTGTCCGCGTGGCGGAGTCACCTAGTGCAG | 4340 fluorescence intensity (a.u.)
10 | AACATGAAAGCTCAAGAGCTCGTGCTGACGGCTGAGAATCCGGAGTCACCTAGTGCAG | 3150 fluorescence intensity (a.u.)
11 | TATATAGGGTTAATTTACAAAGTAAGTTCTCTAAAACTATCGGAGTCACCTAGTGCAG | 34500 fluorescence intensity (a.u.)
12 | CGCTCTACTCTTCCGCCGCCGCCGCCGTCAGCGTCAGCGACGGAGTCACCTAGTGCAG | 5890 fluorescence intensity (a.u.)
13 | CCATTATTGGACGCATTCCGTCAGCATCAACTGCCTCATCCGGAGTCACCTAGTGCAG | 4980 fluorescence intensity (a.u.)
14 | GGAAATCATCCATGTTTAGCATTTTATCGTGTTGAGTCAGCGGAGTCACCTAGTGCAG | 5940 fluorescence intensity (a.u.)
15 | ATCATACCAGCAAAGTTGGCAGCAAAATGCCCCACCACCTCGGAGTCACCTAGTGCAG | 3230 fluorescence intensity (a.u.)
16 | CCTTCCTCCCTCCGCCAGCGCCACCTCCGCGCTACTGCCTCGGAGTCACCTAGTGCAG | 6970 fluorescence intensity (a.u.)
17 | GCTCGCCCGTGACGCGTGCCGCGTGCGTGACTGCCAGCAGCGGAGTCACCTAGTGCAG | 6040 fluorescence intensity (a.u.)
18 | TTCTAAATATGACACATCCTCCGATTACAAGTCACAAATACGGAGTCACCTAGTGCAG | 3450 fluorescence intensity (a.u.)
19 | AAATCAACACGTGAATTCTGATCCGATATGGACACGCAAGCGGAGTCACCTAGTGCAG | 3700 fluorescence intensity (a.u.)
20 | GCCGCCTGCCTCCTCGGCCGCGCGCTCACCTGCCGCTACCCGGAGTCACCTAGTGCAG | 5920 fluorescence intensity (a.u.)
21 | GAAAGGACCGGTTCAACGATCCACGTCAGCGGCGCAAGCCCGGAGTCACCTAGTGCAG | 26100 fluorescence intensity (a.u.)

A few values from the entries so far.
binding signal with ATCATACCAGCAAAGTTGGCAGCAAAATGCCCCACCACCTCGGAGTCACCTAGTGCAG reads 3230 fluorescence intensity (a.u.)
binding signal with TTGACCCACCCCAGTAGCGTGTCGTGTCGTGTCCGCGTGGCGGAGTCACCTAGTGCAG reads 4340 fluorescence intensity (a.u.)
binding signal with TGACATGTGGGCCATCCTTATGTGTGCCCCGCACGTCAGTCGGAGTCACCTAGTGCAG reads 4180 fluorescence intensity (a.u.)
binding signal with AAATCAACACGTGAATTCTGATCCGATATGGACACGCAAGCGGAGTCACCTAGTGCAG reads 3700 fluorescence intensity (a.u.)

(further entries)

Row | Sequence | binding signal
22 | AGTACTGCATGTGTCACATGTCTGTATCCGGTATGGTCTGCGGAGTCACCTAGTGCAG | 4170 fluorescence intensity (a.u.)
23 | TCTCACTCTCACTCTCACTCTCACTCAGCTCGAGCCACAGCGGAGTCACCTAGTGCAG | 18700 fluorescence intensity (a.u.)
24 | ACTCGCCCCAATCCAATCCACTCCACCGTACCACTCGCCGCGGAGTCACCTAGTGCAG | 5110 fluorescence intensity (a.u.)
25 | GATAGCGCTTTCGTCTCTCCTGACTGTATCTGGAGACACCCGGAGTCACCTAGTGCAG | 4920 fluorescence intensity (a.u.)
26 | GGCAGCGTGGCTATGGTCCCACCCGTCAGCCACCTCTCTCCGGAGTCACCTAGTGCAG | 4140 fluorescence intensity (a.u.)
27 | GGGCGGCCGACGCCTGCTGCACGGCGGCGACCTCCTCGACCGGAGTCACCTAGTGCAG | 5760 fluorescence intensity (a.u.)
28 | CTCCTTGCTTCCTTTTCTGACGAAACAAAACCAAGTATACCGGAGTCACCTAGTGCAG | 4320 fluorescence intensity (a.u.)
29 | ATCTGGCCGTCCACGTTCCTCACTGTGCTGGCCCTTCCGCCGGAGTCACCTAGTGCAG | 3470 fluorescence intensity (a.u.)
30 | TTTGTAGGAGCTTCATCCCACGTGGCACTCCAGGCTGAGCCGGAGTCACCTAGTGCAG | 24200 fluorescence intensity (a.u.)
31 | ATAGTACTAGAATACGTCTCATCCACTCAAAATTCCTTATCGGAGTCACCTAGTGCAG | 28000 fluorescence intensity (a.u.)
32 | TTAGCGTCAAATCATTGATCAATTAGGCTTAAAAGATTCGCGGAGTCACCTAGTGCAG | 31800 fluorescence intensity (a.u.)
33 | TATGTAATATATCACGTCACATATATGTAAGTTCATATTCCGGAGTCACCTAGTGCAG | 4910 fluorescence intensity (a.u.)
34 | ACCGTGCAACGCCTCGCTAGCTGGCGTGGGCCCCACCTAACGGAGTCACCTAGTGCAG | 3820 fluorescence intensity (a.u.)
35 | AGTTACCGTTCTAGTCAGGGGCGGATCCAGCGTGGGGCGGCGGAGTCACCTAGTGCAG | 3290 fluorescence intensity (a.u.)
36 | TGATCAAAGGGTTTTACTAAAGGAGTTATGGTCTAATTTTCGGAGTCACCTAGTGCAG | 64900 fluorescence intensity (a.u.)
37 | AGCCACATTGTTGGTCGCCCATCCTGCATCACCTGGATCCCGGAGTCACCTAGTGCAG | 3220 fluorescence intensity (a.u.)
38 | AGCCGGAGGCCAAGGGGCGTGGACGGTGGAGGGTAATCCGCGGAGTCACCTAGTGCAG | 3370 fluorescence intensity (a.u.)
39 | TTTGCTGAGATATAGTTGCCACGTGAGCGCCACGTCAAGCCGGAGTCACCTAGTGCAG | 30800 fluorescence intensity (a.u.)
40 | TTCTTGCCGATATTTTGGTGCGTCATCCGTGTATGAGTCGCGGAGTCACCTAGTGCAG | 7280 fluorescence intensity (a.u.)
41 | GCCTCACCTTTCACTTCATCCATCTCTACACATCAGCAATCGGAGTCACCTAGTGCAG | 8490 fluorescence intensity (a.u.)
42 | GGAGGCTTCACTGGTGGCGGGGCCGGAGTCGAGGGGTTCTCGGAGTCACCTAGTGCAG | 3150 fluorescence intensity (a.u.)

Source: paper PMC7819943, “Rice protein-binding microarrays: a tool to detect cis-acting elements near promoter regions in rice”
